Test [1] has as its target Prokineticin receptor 2 (Prokr2) (mouse (endogenous in brain tissue)) (UniProt Q8K458). The experiment in a line: co-IP; lysates of mouse brain tissue with and without CCI in weak RIPA buffer, primary antibody overnight at 4 °C, protein A/G agarose, immunoblot; which protein was precipitated not given. On the technique in general: A western blot detects proteins with antibodies after separation by electrophoresis.

Protein sequences, listed by entry. Tags and fused reporters are not part of them.
UniProt Q8K458: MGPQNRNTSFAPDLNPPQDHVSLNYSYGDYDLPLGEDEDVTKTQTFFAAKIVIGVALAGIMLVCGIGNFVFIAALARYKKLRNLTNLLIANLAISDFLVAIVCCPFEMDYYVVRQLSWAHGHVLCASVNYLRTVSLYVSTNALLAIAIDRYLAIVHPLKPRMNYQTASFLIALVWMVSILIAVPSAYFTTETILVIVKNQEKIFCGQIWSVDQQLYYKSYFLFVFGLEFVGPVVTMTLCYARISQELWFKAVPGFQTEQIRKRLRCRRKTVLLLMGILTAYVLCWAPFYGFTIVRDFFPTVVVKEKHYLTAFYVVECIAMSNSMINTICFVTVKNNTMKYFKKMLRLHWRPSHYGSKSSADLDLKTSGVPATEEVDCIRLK
UniProt Q9QUJ7: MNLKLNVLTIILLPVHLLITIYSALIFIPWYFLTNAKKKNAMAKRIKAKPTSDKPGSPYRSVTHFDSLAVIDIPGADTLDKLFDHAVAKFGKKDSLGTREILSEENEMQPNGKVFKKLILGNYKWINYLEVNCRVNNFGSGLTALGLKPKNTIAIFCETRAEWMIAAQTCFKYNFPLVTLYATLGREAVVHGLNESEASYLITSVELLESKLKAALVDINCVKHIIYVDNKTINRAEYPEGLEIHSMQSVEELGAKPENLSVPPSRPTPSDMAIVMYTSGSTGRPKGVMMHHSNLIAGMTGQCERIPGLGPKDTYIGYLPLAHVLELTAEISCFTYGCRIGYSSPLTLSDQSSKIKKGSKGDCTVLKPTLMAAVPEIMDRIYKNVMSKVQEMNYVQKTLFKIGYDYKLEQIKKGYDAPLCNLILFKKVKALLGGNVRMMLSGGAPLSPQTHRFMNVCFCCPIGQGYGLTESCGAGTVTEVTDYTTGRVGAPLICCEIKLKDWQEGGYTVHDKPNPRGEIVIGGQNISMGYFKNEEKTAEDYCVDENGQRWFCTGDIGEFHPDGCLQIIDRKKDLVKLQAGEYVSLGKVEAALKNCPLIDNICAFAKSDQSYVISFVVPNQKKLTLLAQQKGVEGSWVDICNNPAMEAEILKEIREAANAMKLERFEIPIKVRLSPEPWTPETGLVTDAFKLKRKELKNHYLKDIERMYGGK

The target in test [2] is long-chain-fatty-acid-CoA ligase 4 (Acsl4) (mouse (endogenous in primary cortical neurons)) (UniProt Q9QUJ7). Briefly: co-IP; Myc-tagged Fbxo10 fragments (aa 6-49, aa 460-867, aa 1-951) from plasmids, Myc-only plasmid as control; tested for interaction with Acsl4; method not named for this panel.

The results in this text go back to PMC8270965.

These are yes or no findings as the source states them, for the method shown. In cells and extracts the contact can be indirect. Some entries that bind do so weakly or less than the wild type. For some assays here: Where a sequence is shown, tags or fusion partners need not be part of it.

B1: Prokineticin-2 (Prok2) (ligand, UniProt Q9QXU7 27-128)
chain: AVITGACDKDSQCGGGMCCAVSIWVKSIRICTPMGQVGDSCHPLTRKSHVANGRQERRRAKRRKRKKEVPFWGRRMHHTCPCLPGLACLRTSFNRFICLARK
In the case of B1, the binding entry in test [1] is on record as “binds”.

B2: Myc-tagged Fbxo10 domain (aa 460-867) (domain or fragment, UniProt Q7TQF2 460-867)
chain: YAVRCIHNSKIVMLRNDIYRCRASGIFLRLEGGGLIAGNNIYHNAEAGVDIRKKSNPLILCNQIHHGLRSGIVVLGNGKGVIRNNQIFSNKEAGIYILYHGNPIVSGNHIFKGRAAGIAVNENGKGLITENVIRENQWGGVDIRRGGVPILRSNLICFGYSDGVVVGDEGKGLIEGNTIYANKGCGVWMMSSSLPHVTSNHVSYNGLYGVAVFSQKDGEFPGGHGAQENFSEDGDAILWEAELEKEDDPLRRPITVALVESNSINHNGASGIFVQSSEALQVVANVIHANGDRGITIVQSSQLTRVANNSISCNRQSGVKVEFQCKVELRGNGIYDNRGHGIITKGDGTAVVENDIIGNRGSGLQLLPRSDTKVLKNRIHSFRAYGIAVRGRVKALVQENIIFQGKTN
Turning to B2, the binding result in test [2] is on record as “binds”.
